Results from article PMC13545989.

Molecular target: T1, TRAK2 E242R (mScarlet fusion) (UniProt O60296)
T1 sequence: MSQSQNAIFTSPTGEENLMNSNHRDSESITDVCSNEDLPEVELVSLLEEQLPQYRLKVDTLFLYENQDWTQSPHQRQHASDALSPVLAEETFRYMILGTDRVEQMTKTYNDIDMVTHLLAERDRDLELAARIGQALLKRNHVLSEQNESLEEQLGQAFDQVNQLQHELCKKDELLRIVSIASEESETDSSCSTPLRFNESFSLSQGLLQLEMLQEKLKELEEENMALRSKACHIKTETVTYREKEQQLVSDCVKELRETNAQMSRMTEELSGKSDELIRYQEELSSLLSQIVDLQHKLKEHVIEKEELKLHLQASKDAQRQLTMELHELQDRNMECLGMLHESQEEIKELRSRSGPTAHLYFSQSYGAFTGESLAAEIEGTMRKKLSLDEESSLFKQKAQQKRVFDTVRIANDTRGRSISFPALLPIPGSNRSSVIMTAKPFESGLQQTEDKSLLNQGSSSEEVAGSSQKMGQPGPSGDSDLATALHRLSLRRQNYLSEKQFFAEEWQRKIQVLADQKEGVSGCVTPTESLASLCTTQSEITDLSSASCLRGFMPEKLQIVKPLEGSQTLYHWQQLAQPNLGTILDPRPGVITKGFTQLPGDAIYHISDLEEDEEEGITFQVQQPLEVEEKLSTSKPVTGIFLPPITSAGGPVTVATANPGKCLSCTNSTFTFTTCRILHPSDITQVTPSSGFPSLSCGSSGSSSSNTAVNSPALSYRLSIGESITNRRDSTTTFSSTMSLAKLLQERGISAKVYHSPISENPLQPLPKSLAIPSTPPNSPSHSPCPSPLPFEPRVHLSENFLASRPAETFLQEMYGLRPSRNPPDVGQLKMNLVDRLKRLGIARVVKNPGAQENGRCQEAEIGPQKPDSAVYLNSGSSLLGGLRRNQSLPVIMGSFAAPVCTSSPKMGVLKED
Experiment: co-IP; FLAG purification of Miro1/FP/FLAG/I3-01 synthetic cargo from hTERT RPE-1 cell lines co-expressing TRAK/mScarlet variants; immunoblot of the associated motor-adaptor components (kinesin, dynein, dynactin); also done after kinesin RNAi (fig. S4E)

## kinesin-1 (human (endogenous in hTERT RPE-1))
  binding: binds

Results are given in words; binding and its absence hold for the method and conditions named. Binding seen in cells or lysates may run through a third protein. Binding can be weak; no strength is given. Where a sequence is shown, tags or fusion partners need not be part of it.
